Like-named read-outs stand apart in the source and are kept apart here. These are yes or no findings as the source states them, for the method shown. In cells and extracts the contact can be indirect. Some entries that bind do so weakly or less than the wild type.
Legend:
Test in all cases: co-sedimentation
[1] = biological target: T1, GR10, synthetic poly-glycine-arginine 10-mer dipeptide repeat protein with C-terminal lysine and cysteine
T1 sequence (peptide): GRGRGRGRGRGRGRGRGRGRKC

Chains of the proteins cited; added tags and fusions are not shown.
UniProt O00571: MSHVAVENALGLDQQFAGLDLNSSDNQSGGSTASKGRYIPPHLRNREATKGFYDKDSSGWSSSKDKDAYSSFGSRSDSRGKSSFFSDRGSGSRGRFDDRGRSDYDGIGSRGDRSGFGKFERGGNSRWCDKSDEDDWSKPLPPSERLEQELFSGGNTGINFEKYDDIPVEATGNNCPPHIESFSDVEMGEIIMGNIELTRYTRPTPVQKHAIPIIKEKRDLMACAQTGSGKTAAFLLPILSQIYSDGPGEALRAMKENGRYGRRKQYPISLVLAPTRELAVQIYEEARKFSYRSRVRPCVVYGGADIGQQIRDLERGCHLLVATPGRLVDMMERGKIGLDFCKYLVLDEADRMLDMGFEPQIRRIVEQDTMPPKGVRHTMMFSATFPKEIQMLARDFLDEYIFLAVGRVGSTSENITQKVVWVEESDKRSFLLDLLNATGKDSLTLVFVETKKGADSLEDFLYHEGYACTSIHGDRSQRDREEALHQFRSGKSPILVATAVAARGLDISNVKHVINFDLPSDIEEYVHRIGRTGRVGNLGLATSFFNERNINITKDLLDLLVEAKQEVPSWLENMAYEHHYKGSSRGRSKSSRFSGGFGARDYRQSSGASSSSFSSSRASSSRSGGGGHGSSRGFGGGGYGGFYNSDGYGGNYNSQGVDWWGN
UniProt P35637: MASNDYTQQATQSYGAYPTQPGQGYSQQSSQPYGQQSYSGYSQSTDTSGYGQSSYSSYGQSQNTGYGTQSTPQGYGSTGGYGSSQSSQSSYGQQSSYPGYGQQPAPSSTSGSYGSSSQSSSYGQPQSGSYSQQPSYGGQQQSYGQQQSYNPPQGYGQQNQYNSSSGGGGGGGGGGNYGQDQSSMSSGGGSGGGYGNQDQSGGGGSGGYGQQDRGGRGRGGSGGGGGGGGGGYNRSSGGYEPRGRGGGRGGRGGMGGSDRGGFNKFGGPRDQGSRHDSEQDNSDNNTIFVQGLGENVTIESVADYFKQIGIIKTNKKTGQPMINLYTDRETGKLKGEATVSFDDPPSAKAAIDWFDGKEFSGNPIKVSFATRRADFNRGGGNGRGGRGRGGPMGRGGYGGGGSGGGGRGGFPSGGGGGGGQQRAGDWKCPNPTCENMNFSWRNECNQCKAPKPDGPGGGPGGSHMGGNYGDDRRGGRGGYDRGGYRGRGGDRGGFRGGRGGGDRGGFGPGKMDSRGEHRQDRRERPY
UniProt P18754: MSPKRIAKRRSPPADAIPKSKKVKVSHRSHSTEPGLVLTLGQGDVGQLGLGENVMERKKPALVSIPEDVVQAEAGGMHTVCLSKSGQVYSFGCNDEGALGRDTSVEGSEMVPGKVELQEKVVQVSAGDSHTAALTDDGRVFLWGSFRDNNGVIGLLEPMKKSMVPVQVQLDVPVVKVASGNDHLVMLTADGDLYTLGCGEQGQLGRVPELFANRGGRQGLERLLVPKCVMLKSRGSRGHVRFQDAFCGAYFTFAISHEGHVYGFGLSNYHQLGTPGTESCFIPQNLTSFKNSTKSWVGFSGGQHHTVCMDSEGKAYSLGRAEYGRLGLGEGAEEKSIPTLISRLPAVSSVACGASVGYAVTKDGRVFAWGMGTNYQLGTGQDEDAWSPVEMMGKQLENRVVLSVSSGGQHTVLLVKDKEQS
UniProt Q13148: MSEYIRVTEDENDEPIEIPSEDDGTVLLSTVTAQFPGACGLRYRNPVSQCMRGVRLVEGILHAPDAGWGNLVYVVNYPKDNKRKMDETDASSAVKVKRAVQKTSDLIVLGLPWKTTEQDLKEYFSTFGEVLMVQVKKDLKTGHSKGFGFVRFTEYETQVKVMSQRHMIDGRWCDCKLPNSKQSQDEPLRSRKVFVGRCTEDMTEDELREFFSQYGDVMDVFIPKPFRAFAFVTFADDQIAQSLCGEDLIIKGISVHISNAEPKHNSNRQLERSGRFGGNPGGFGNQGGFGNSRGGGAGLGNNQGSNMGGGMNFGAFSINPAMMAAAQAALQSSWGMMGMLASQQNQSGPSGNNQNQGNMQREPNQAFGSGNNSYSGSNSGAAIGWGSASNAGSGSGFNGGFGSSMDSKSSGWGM
UniProt Q92973: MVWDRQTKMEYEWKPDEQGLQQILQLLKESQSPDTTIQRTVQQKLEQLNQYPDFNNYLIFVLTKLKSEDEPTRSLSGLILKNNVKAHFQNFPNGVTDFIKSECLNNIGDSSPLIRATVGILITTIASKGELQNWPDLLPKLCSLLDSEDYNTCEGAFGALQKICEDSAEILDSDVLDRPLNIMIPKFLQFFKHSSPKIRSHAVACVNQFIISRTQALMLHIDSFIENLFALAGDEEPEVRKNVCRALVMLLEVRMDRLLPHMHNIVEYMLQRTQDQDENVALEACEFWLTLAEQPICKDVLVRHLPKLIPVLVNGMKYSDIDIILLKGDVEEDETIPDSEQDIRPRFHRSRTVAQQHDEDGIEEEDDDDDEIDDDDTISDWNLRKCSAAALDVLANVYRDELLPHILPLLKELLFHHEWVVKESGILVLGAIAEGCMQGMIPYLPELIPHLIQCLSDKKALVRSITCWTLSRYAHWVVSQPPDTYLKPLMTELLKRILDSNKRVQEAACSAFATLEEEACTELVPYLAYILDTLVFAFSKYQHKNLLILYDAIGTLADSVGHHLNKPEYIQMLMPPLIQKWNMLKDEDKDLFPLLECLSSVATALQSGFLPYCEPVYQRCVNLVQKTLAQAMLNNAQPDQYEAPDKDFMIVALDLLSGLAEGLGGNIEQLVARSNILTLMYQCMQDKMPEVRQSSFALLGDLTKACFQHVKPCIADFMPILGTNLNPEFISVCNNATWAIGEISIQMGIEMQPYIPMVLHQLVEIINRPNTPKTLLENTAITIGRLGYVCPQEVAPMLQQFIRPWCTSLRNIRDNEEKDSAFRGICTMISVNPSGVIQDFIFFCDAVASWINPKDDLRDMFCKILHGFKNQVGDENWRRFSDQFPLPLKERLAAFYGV
UniProt Q14974: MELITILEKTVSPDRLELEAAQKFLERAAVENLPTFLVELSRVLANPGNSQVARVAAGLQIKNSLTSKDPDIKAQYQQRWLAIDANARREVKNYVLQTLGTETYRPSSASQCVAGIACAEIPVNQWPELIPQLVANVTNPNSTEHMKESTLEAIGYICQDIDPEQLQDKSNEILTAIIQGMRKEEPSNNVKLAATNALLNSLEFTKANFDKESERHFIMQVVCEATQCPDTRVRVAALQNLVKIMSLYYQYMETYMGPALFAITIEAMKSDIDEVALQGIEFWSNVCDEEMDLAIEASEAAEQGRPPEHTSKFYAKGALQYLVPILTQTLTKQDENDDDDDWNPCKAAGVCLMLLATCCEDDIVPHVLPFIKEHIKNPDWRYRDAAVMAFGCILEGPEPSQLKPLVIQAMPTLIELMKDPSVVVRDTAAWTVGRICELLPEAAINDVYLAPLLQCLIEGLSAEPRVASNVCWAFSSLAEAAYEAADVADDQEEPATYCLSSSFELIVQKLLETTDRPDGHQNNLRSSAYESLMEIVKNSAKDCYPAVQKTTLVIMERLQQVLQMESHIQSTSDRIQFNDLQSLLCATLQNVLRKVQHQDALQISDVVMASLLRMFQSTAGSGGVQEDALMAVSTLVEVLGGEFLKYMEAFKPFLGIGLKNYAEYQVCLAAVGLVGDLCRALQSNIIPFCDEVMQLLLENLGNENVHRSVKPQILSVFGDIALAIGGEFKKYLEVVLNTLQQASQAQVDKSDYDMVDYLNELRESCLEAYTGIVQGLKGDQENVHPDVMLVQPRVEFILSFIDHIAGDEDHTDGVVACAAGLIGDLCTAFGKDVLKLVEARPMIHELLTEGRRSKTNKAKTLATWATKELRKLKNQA
UniProt P37198: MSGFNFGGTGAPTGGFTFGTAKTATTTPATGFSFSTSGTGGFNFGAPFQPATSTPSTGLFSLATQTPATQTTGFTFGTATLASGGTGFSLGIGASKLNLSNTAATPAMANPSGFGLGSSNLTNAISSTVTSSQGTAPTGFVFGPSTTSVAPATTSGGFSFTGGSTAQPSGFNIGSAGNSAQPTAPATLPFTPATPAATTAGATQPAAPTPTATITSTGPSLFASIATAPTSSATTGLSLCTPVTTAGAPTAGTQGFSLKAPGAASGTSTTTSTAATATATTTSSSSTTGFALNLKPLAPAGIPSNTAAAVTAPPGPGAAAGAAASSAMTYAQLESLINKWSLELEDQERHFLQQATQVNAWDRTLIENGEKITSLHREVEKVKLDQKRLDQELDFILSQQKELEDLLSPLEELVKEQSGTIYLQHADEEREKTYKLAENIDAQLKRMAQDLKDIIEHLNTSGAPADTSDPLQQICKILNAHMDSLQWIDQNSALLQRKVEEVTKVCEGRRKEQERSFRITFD

[2] = biological target: T2, PR10, synthetic poly-proline-arginine 10-mer dipeptide repeat protein with C-terminal lysine and cysteine
T2 sequence (peptide): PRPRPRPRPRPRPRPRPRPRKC

[3] = biological target: T1, GR10, synthetic poly-glycine-arginine 10-mer dipeptide repeat protein with C-terminal lysine and cysteine; remark: listed apart in the source
[4] = biological target: T2, PR10, synthetic poly-proline-arginine 10-mer dipeptide repeat protein with C-terminal lysine and cysteine; remark: listed apart in the source

binding [1]	binding [2]	binding [3]	binding [4]	Substance
binds	binds			ATP-dependent RNA helicase DDX3X, endogenous in HEK cell lysate (from UniProt O00571 1-662)
binds	binds	binds	binds	FUS, endogenous in HEK cell lysate (from UniProt P35637 1-526)
no binding	no binding	no binding	no binding	RCC1, endogenous in HEK cell lysate (from UniProt P18754 1-421)
binds	binds	binds	binds	TDP-43, endogenous in HEK cell lysate (from UniProt Q13148 1-414)
binds	binds			TNPO1, endogenous in HEK cell lysate (from UniProt Q92973 1-898)
binds	binds			importin β, endogenous in HEK cell lysate (from UniProt Q14974 1-876)
binds	binds			nucleoporin 62, endogenous in HEK cell lysate (from UniProt P37198 1-522)

Reference: publication doi:10.1101/787473
